# Data: the supplement of paper PMC12819154, “High-throughput peptide-centric local stability assay extends protein–ligand identification to membrane proteins, tissues and bacteria” (Nature Structural & Molecular Biology, 2025)
# The chains behind the UniProt entries cited, without tags or fusion partners. Where a name states a change or a piece, a line headed by the entry shows the natural chain unless it says otherwise.
# UniProt Q96GA7: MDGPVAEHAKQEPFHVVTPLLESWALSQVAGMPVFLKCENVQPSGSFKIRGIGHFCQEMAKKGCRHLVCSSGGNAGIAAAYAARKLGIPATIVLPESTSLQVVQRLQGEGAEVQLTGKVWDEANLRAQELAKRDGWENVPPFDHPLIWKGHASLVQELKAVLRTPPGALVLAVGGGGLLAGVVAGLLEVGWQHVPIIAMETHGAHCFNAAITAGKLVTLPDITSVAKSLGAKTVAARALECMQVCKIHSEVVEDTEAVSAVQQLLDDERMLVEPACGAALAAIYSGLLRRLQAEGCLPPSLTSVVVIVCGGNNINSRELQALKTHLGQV
# UniProt Q969W3: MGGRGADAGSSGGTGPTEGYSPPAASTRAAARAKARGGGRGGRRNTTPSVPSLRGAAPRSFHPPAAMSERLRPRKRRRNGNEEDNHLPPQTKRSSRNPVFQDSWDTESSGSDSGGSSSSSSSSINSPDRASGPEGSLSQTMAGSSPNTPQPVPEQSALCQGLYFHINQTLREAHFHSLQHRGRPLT
# UniProt Q92851: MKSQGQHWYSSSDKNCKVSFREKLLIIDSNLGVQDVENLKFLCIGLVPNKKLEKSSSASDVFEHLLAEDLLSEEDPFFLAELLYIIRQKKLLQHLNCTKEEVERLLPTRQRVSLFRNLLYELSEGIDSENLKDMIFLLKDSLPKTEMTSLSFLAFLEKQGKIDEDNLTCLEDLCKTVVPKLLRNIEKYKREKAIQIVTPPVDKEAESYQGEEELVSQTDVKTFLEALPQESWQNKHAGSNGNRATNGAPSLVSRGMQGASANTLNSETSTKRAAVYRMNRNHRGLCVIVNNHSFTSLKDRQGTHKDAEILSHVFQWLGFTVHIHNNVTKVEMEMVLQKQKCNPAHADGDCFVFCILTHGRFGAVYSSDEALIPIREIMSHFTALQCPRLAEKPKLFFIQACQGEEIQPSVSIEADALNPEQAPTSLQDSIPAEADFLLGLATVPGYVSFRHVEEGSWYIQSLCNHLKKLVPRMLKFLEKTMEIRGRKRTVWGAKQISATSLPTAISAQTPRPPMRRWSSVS
# UniProt Q92844: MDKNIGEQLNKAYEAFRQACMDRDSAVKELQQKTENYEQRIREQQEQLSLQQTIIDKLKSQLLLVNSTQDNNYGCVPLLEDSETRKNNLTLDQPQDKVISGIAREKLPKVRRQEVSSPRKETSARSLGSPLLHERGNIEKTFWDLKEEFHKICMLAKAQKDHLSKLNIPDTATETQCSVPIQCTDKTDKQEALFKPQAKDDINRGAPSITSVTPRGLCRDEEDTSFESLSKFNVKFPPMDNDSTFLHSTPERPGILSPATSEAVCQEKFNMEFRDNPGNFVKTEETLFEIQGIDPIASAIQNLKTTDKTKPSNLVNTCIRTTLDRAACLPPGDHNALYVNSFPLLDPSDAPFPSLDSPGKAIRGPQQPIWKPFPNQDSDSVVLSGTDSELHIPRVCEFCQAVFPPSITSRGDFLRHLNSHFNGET
# UniProt Q96EY8: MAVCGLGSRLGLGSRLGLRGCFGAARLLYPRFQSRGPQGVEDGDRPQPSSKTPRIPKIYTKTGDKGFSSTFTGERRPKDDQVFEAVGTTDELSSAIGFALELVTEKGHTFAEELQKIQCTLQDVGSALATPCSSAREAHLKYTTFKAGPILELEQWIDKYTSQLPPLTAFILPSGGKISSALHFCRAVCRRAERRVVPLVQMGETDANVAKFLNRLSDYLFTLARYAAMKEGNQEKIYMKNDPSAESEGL
# UniProt Q96EA4: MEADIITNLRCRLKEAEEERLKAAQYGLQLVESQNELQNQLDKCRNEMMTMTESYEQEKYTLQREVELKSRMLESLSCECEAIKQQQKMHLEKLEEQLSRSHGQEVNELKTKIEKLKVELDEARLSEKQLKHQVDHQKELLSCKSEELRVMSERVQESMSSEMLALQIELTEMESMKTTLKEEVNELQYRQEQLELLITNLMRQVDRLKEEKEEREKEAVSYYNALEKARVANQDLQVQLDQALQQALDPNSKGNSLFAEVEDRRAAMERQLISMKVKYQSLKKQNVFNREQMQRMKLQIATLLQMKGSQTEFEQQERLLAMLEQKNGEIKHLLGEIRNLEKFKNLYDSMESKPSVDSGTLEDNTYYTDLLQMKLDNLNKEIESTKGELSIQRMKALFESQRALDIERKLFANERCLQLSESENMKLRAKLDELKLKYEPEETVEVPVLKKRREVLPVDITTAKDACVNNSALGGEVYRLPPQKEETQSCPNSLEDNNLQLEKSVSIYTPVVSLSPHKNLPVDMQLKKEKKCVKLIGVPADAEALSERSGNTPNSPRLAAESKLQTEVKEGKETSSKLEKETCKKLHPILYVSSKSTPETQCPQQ
# UniProt Q969X0: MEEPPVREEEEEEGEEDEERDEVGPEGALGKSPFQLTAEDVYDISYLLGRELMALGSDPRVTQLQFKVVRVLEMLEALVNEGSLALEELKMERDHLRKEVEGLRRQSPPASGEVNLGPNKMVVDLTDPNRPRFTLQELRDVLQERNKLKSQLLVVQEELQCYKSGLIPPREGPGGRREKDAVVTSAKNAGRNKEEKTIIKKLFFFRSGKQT
# UniProt Q96D09: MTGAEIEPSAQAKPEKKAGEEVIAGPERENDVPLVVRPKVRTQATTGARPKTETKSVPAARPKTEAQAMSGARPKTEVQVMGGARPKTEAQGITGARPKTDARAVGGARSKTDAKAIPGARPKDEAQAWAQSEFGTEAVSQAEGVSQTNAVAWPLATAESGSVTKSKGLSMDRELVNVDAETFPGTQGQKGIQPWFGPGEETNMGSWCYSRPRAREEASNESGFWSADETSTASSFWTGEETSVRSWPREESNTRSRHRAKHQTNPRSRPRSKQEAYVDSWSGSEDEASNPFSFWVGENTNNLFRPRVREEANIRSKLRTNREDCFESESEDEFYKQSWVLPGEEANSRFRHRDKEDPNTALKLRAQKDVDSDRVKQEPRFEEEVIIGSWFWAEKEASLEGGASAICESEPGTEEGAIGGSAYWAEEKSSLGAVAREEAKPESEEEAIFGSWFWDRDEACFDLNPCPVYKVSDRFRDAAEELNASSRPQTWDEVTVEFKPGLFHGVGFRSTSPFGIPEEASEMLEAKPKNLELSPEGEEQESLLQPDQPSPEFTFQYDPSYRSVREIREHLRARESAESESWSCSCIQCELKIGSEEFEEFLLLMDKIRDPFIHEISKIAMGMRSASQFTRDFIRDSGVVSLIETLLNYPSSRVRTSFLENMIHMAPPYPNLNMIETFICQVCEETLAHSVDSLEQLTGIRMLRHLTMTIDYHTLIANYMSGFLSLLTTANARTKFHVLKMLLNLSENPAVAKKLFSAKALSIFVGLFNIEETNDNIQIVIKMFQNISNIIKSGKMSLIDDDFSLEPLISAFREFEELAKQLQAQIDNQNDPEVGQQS
# UniProt Q969J2: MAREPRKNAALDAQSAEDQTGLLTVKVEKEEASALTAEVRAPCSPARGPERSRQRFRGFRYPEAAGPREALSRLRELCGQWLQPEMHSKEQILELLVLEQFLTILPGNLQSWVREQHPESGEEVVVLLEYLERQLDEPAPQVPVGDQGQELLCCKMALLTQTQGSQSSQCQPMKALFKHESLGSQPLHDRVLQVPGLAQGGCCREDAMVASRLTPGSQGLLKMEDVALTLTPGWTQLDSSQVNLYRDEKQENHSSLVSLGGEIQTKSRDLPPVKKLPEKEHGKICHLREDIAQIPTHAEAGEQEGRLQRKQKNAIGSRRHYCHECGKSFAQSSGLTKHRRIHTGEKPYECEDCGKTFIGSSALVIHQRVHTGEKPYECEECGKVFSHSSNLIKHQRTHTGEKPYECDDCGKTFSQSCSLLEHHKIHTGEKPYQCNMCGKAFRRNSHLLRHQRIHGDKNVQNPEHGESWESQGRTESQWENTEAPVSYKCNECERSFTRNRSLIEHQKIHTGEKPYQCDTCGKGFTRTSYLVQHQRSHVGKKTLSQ
# UniProt Q96FZ7: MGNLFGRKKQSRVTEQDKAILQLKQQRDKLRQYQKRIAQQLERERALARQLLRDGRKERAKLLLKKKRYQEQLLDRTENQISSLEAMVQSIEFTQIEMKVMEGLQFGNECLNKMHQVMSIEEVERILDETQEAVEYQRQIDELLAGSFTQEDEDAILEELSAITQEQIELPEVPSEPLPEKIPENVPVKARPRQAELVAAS
# UniProt Q969V6: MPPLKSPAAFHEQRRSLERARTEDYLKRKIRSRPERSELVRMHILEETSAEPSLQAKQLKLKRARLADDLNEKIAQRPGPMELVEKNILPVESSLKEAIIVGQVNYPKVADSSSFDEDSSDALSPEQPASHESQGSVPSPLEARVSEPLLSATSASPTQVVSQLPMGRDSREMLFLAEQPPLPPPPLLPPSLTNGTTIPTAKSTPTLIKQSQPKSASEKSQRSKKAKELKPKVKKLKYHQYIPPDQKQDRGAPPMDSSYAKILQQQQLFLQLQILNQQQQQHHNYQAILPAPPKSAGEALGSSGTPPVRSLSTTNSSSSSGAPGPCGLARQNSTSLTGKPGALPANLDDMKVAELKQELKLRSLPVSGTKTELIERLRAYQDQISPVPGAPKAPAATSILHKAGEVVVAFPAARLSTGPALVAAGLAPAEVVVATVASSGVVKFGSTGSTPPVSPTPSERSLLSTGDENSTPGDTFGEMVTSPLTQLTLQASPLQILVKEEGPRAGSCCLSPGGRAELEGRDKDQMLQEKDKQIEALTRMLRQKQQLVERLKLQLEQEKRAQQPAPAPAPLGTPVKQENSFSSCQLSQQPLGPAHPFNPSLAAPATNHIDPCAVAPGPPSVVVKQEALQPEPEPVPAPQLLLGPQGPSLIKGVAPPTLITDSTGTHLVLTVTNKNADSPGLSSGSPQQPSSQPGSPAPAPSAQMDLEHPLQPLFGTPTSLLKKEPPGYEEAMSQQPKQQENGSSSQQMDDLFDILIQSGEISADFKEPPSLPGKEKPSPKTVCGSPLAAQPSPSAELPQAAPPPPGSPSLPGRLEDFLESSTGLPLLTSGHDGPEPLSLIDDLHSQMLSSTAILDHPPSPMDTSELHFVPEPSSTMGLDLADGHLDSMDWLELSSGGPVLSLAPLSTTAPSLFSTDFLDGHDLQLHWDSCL
# UniProt Q96DM3: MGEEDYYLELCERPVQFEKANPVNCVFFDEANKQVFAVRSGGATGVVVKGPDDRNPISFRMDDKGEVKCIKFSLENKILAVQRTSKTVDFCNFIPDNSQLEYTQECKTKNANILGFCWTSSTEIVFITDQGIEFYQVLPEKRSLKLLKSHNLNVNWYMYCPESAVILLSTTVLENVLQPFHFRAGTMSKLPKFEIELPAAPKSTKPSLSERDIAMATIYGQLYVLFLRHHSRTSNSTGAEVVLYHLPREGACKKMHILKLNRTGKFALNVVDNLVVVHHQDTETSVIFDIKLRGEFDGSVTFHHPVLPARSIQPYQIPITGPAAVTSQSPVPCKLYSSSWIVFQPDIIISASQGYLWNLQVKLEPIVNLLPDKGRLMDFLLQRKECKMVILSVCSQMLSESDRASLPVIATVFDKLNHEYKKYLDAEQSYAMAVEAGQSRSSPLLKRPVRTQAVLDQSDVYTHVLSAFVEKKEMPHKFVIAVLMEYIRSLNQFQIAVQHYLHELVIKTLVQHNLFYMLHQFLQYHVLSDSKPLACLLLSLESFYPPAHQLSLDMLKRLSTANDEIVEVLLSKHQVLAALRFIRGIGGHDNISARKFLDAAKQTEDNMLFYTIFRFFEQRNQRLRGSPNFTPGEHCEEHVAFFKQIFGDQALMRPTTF
# UniProt Q96EK4, whole entry: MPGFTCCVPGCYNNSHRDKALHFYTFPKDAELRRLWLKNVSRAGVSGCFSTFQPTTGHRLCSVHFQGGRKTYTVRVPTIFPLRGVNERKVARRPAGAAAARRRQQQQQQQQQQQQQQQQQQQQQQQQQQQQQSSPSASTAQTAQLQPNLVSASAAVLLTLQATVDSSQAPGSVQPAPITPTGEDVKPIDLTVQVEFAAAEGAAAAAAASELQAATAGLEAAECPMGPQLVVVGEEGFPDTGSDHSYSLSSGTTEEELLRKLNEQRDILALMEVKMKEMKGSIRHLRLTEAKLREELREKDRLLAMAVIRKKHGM
# UniProt Q96C19: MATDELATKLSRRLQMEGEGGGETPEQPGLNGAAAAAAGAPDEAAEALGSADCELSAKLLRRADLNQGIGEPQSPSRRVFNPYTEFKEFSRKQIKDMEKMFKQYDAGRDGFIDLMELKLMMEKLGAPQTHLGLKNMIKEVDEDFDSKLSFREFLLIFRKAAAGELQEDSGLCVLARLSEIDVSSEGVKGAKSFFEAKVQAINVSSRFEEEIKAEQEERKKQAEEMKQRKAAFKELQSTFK
# UniProt Q96A73: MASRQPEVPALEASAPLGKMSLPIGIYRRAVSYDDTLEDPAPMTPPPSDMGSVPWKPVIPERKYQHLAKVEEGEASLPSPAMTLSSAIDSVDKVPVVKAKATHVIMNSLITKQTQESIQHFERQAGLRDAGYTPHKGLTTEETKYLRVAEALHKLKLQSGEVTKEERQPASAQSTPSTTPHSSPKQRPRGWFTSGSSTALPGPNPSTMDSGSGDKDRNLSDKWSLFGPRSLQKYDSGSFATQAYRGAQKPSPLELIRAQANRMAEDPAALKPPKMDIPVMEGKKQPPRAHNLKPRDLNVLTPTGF
# The other results are listed elsewhere or left out. Most values lie at the level of the controls, where differences are scatter.
# Compound: CN[C@@H]1C[C@H]2O[C@@](C)([C@@H]1OC)n1c3ccccc3c3c4c(c5c6ccccc6n2c5c31)C(=O)NC4 [staurosporine]
# Assay: log2 fold change of tryptic peptide abundance, ligand vs vehicle (limited proteolysis) (log2 ratio); higher = more trypsin-susceptible (destabilized)
# Conditions: ligand concentration: 20 uM; sample: K562 cleared lysate; digestion: 4 min, 22 C (HT-PELSA RT4min, Orbitrap Astral)
row,Target,log2 fold change
1,"SDSL (peptide sequence: GHASLVQELK, peptide start residue: 150) (UniProt Q96GA7)",0.195
2,"RNF166 (peptide sequence: SLVASAQQR, peptide start residue: 6) (UniProt Q96A37)",0.115
3,"UniProt Q96B45 (peptide sequence: NVEQSSDLQDQLNHLLK, peptide start residue: 90)",-0.127
4,"FAM104A (peptide sequence: SFHPPAAMSER, peptide start residue: 60) (UniProt Q969W3)",0.559
5,"CASP10 (peptide sequence: DMIFLLK, peptide start residue: 133) (UniProt Q92851)",-0.152
6,"TANK (peptide sequence: IREQQEQLSLQQTIIDKLK, peptide start residue: 41) (UniProt Q92844)",-0.528
7,"MMAB (peptide sequence: GPQGVEDGDRPQPSSK, peptide start residue: 36) (UniProt Q96EY8)",-0.121
8,"UniProt Q96EA4 (peptide sequence: VKYQSLKK, peptide start residue: 277)",0.657
9,"UniProt Q96CS4 (peptide sequence: FSYPSLLVSHR, peptide start residue: 186)",0.314
10,"RILPL2 (peptide sequence: MVVDLTDPNRPR, peptide start residue: 121) (UniProt Q969X0)",0.0822
11,"GPRASP2 (peptide sequence: AGEEVIAGPERENDVPLVVRPK, peptide start residue: 18) (UniProt Q96D09)",-0.165
12,"ZKSCAN4 (peptide sequence: EDIAQIPTHAEAGEQEGR, peptide start residue: 289) (UniProt Q969J2)",0.301
13,"ATG2B (peptide sequence: EPNLVISFSGPK, peptide start residue: 1761) (UniProt Q96BY7)",0.485
14,"EXOSC8 (peptide sequence: LGNTTVICGVK, peptide start residue: 53) (UniProt Q96B26)",0.578
15,"PPP1R14A (peptide sequence: GPGGSPGGLQKR, peptide start residue: 22) (UniProt Q96A00)",0.646
16,"CHMP6 (peptide sequence: MHQVMSIEEVER, peptide start residue: 114) (UniProt Q96FZ7)",-0.476
17,"UniProt Q969V6 (peptide sequence: GAPPMDSSYAK, peptide start residue: 251)",-0.283
18,"NT5C3B (peptide sequence: AHNLLCQQK, peptide start residue: 109) (UniProt Q969T7)",0.747
19,"PTCD3 (peptide sequence: SDLREEILMLMAR, peptide start residue: 525) (UniProt Q96EY7)",0.222
20,"UniProt Q96DM3 (peptide sequence: MDDKGEVK, peptide start residue: 61)",-0.787
21,"TTC17 (peptide sequence: DIALVNLANVLHR, peptide start residue: 262) (UniProt Q96AE7)",-0.609
22,"THAP11 (peptide sequence: ALHFYTFPK, peptide start residue: 20) (UniProt Q96EK4)",0.213
23,"MRPS24 (peptide sequence: GDKPVTYEEAHAPHYIAHR, peptide start residue: 47) (UniProt Q96EL2)",-0.317
24,"EFHD2 (peptide sequence: LSEIDVSSEGVKGAK, peptide start residue: 177) (UniProt Q96C19)",1.02
25,"APBB2 (peptide sequence: GVLSLIDTLK, peptide start residue: 740) (UniProt Q92870)",0.0394
26,"FAHD2A (peptide sequence: RALAAQLPVLPR, peptide start residue: 82) (UniProt Q96GK7)",-0.255
27,"KIAA1191 (peptide sequence: ATHVIMNSLITK, peptide start residue: 101) (UniProt Q96A73)",0.172
28,"BICD1 (peptide sequence: ILEMQNELK, peptide start residue: 109) (UniProt Q96G01)",0.297

# As entered above:
# For log2 fold change, MRPS24 (peptide sequence: GDKPVTYEEAHAPHYIAHR, peptide start residue: 47) (UniProt Q96EL2) reads -0.317
# For log2 fold change, MMAB (peptide sequence: GPQGVEDGDRPQPSSK, peptide start residue: 36) (UniProt Q96EY8) reads -0.121
